Hit rate of the full screen: of about 1,400 compounds, fewer than 10 were called active.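 Rule for the calls: active = fluorescence-lowering compounds whose fitted half-maximal concentration is at or below ten times the highest valid dose tested; inconclusive = flat curve at 30 to 70% inhibition, or poor fit; inactive = the rest.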 Some of the results follow.
Each molecule was assayed against Histone deacetylase 3 (Homo sapiens) (UniProt O15379) (assay: inhibition of human HDAC3 enzymatic activity – biochemical, fluorescence, cherry-picked samples, counter-screen for JMJD2C/GASC1 demethylase inhibitor project, dose response (AID 485318;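 note: enzyme preincubated with compound before substrate and trypsin were added; 0% = neutral control wells and -100% = SAHA positive control wells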)). Settings: recombinant HDAC3, fluorogenic peptide/trypsin coupled; at 12 µM (top of the series).

Chains of the proteins cited; added tags and fusions are not shown. Lines headed by an entry give the natural chain unless they say otherwise; changes in a name come on top.
UniProt O15379: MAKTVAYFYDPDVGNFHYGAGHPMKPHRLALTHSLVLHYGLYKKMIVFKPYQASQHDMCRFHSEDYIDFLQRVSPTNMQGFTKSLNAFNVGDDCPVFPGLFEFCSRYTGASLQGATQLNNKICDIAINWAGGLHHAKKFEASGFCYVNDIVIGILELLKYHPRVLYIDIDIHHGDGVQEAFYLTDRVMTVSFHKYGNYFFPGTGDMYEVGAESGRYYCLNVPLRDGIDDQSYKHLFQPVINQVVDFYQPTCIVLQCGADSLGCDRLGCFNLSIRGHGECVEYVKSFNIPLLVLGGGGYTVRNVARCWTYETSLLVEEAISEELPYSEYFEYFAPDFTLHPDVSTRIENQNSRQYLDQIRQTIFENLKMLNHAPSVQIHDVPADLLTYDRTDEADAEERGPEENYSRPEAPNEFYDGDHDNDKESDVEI

| Compound | activity change, negative = inhibition |
| --- | --- |
| COc1ccc2cc3cc(C(=O)N4CCN(C5CCCCC5)CC4)oc3nc2c1 | inactive: -0.248% |
| CC(=O)C[C@@H](O)CC(=O)[C@H]1OC(=O)CCCCCc2ccccc21 | inactive: 0.73% |
| O=C(NC1CC2CCC1C2)C1COc2ccccc2O1 (configuration not stated) | inactive: 0.269% |
| CC(C)(O)[C@H](O)Cc1cc2ccc(=O)oc2cc1O[C@@H]1O[C@H](CO)[C@@H](O)[C@H](O)[C@H]1O | inactive: 0.034% |
| COc1ccc(/C=C/C(=O)OCC(=O)c2ccc[nH]2)cc1 | inactive: -0.313% |
| CCOc1ccc2nc(NC(=O)CS(=O)(=O)c3ccc(C)cc3)sc2c1 | inactive: -0.149% |
| COc1cc(Cl)c(NC2=CC(=O)C(=O)c3ccccc32)c(OC)c1 | inactive: -0.49% |
| CCOc1ccccc1Nc1ncnc2ccccc12 | inactive: 1.01% |
| CCOC(=O)c1sc(Nc2nc(OC)cc(OC)n2)nc1C | inactive: -0.509% |
| O=C(Cn1c(NCCCO)nc2ccccc21)c1ccc(Br)cc1 | inactive: 0.155% |
| O=C(NCc1nnc(SCC(=O)N2CCCC2)o1)c1c(F)cccc1Cl | inactive: 0.709% |
| CCN(C[C@H]1N[C@@](C)(C(=O)OC)[C@H]2C(=O)N(C)C(=O)[C@@H]12)C(=O)Nc1ccccc1 | inactive: -0.115% |
| Nc1c(C(=O)OCC2CCCO2)c2nc3ccccc3nc2n1C1CCCC1 (configuration not stated) | inactive: 0.779% |
| COC(=O)CCC(=O)N1CCOCCOCCN(C(=O)CCC(=O)OC)CCOCCOCC1 | inactive: 0.687% |
| O=C(Nc1nc2ccccc2n1CCN1CCCC1)C1CCCCC1 | inactive: -0.0621% |
| CCOC(=O)c1cc2n(n1)C(C(F)(F)F)CC(C)N2 (configuration not stated) | inactive: 0.00685% |
| COc1ccccc1CCNC(=O)c1ccc(C)o1 | inactive: -0.4% |
| Cc1ccc(CNC(=O)[C@@H](NC(=O)Cc2ccccc2)C(C)C)cc1 | inactive: 0.874% |
| Cn1nc(N)nc1N1CCN(c2ccc(F)cc2)CC1 | inactive: 0.182% |
| Cc1noc(C)c1NC(=O)N(C)C[C@H]1Oc2ccc(NS(=O)(=O)c3ccccc3)cc2C(=O)N([C@H](C)CO)C[C@@H]1C | inactive: 0.22% |
| CCc1ncc(C)[nH]1 | inactive: 0.761% |
| COC(=O)c1ccc(-c2sc3nc(N4CCOCC4)c4c(c3c2N)CC(C)(C)OC4)o1 | inactive: -0.609% |

| Compound | activity change, negative = inhibition |
| --- | --- |
| Cc1ccc(NC(=O)CSc2ncc(S(=O)(=O)c3ccccc3)c(=O)[nH]2)cc1C | inactive: -0.644% |
| COc1ccc(Br)cc1CN(C)CC(=O)NCc1ccc(F)cc1 | inactive: 0.309% |
| COc1ccc(C(CNC(=O)c2oc3cc(Br)ccc3c2C)N2CCCCC2)cc1 (configuration not stated) | inactive: 0.153% |
| O=C(CSc1ncccn1)Nc1ccc(S(=O)(=O)N2CCCCC2)cc1 | inactive: -0.114% |
| CC(=O)Nc1cc2c(cc1NC(=O)Cn1nc(-c3ccccc3)ccc1=O)OCCO2 | inactive: -0.351% |
| CCCCN(C)C(=O)CCC(=O)NNc1nc2ccccc2c2nc(C)nn12 | inactive: -0.0011% |
| N/C(=N\NC(=O)c1ccc(Cl)cc1)c1cnccn1 | inactive: 0.535% |
| CCc1ccc(S(=O)(=O)Nc2nnc(N)s2)cc1 | inactive: 1% |
| Cn1c(=O)[nH]c(=O)c2c1nc(NCCCO)n2Cc1ccc(F)cc1 | inactive: -0.00734% |
| CC(C)(C)n1nc2c(c1NC(=O)c1ccc(Br)o1)CS(=O)C2 (configuration not stated) | inactive: 0.895% |
| CS(=O)(=O)c1ccccc1-c1csc(N2CCC(C(N)=O)CC2)n1 | inactive: -0.0635% |
| CC(C)N(Cc1ccccc1)C(=O)COC(=O)c1ccc2c(c1)OCCO2 | inactive: -0.449% |
| CCc1ccc2oc(=O)cc(CN3CCOCC3)c2c1 | inactive: 1.21% |
| COc1ccc(NC(=S)N2CCC(C(=O)N3CCCCCC3)CC2)cc1 | inactive: 0.339% |
| COc1cccc(/C=C/C(=O)OCC(=O)Nc2cccc(S(=O)(=O)N(C)C)c2)c1 | inactive: -0.586% |
| COc1ccc(S(=O)(=O)Nc2ccc3c(c2)C(=O)N([C@H](C)CO)C[C@H](C)[C@H](CN(C)Cc2ccc(C(=O)O)cc2)O3)cc1 | inactive: 0.353% |
| CCOCCCNC(=O)c1c[nH]c2ccc(C)cc2c1=O | inactive: -0.244% |
| C=CCc1c(C)nc(SC(C)C)[nH]c1=O | inactive: 0.0726% |
| O=C(N/N=C/c1ccc([N+](=O)[O-])o1)c1cn(-c2ccccc2)nc1-c1ccc(F)cc1 | inactive: -0.311% |
| O=C(c1ccsc1)N1CCN(C(=O)c2cccs2)CC1 | inactive: 0.464% |
| COc1ccc(NC(=O)NCCCCc2ccccc2)c(OC)c1 | inactive: -0.195% |
| CCCC(=O)Nc1ccc(C(=O)NCC2CCCO2)cc1 (configuration not stated) | inactive: -0.0895% |

Sorted by SMILES length (descending): some entries from above.

| Compound | activity change, negative = inhibition |
| --- | --- |
| Cc1ccc(NC(=O)CSc2ncc(S(=O)(=O)c3ccccc3)c(=O)[nH]2)cc1C | inactive: -0.644% |
| COc1ccc(C(CNC(=O)c2oc3cc(Br)ccc3c2C)N2CCCCC2)cc1 (configuration not stated) | inactive: 0.153% |
| CS(=O)(=O)c1ccccc1-c1csc(N2CCC(C(N)=O)CC2)n1 | inactive: -0.0635% |
| O=C(c1ccsc1)N1CCN(C(=O)c2cccs2)CC1 | inactive: 0.464% |
| CCCC(=O)Nc1ccc(C(=O)NCC2CCCO2)cc1 (configuration not stated) | inactive: -0.0895% |
| CCc1ccc(S(=O)(=O)Nc2nnc(N)s2)cc1 | inactive: 1% |
| C=CCc1c(C)nc(SC(C)C)[nH]c1=O | inactive: 0.0726% |

Continuation.

| Compound | activity change, negative = inhibition |
| --- | --- |
| Cc1ccc(S(=O)(=O)N2CCOC2CNC(=O)C(=O)NCCc2ccc(S(N)(=O)=O)cc2)cc1 (configuration not stated) | inactive: -0.0611% |
| CCOC(=O)C1=C(c2ccccc2)NC(=O)NC1c1ccc(O)c(OCC)c1 (configuration not stated) | inactive: 0.587% |
| CCC(C)(C)n1nnnc1CN1CCc2ccccc21 | inactive: 0.458% |
| Oc1ccccc1N1CCN(C(=S)NCc2ccccc2)CC1 | inactive: 1.17% |
| Cc1ccc(NC(=O)/C=C/c2cccs2)c([N+](=O)[O-])c1 | inactive: -0.116% |
| CC(Sc1nc2c(cc1C#N)CCCCC2)C(=O)O (configuration not stated) | inactive: 1.13% |
| O=C1CCCC2=C1C(c1ccc(OS(=O)(=O)c3ccc(Cl)cc3)cc1)C1=C(CCCC1=O)O2 | inactive: 0.631% |
| O=[N+]([O-])c1ccc(O)c(-c2nn[nH]n2)c1 | inactive: 0.227% |
| CSc1ccc(-c2nc(CSCC(=O)N3CCOCC3)c(C)o2)cc1 | inactive: 0.0526% |
| N/C(=N\OC(=O)COc1cc(Cl)c(Cl)cc1Cl)c1ccncc1 | inactive: 0.342% |
| Cc1ccc(/C(N)=N/OC(=O)N2c3ccccc3Sc3ccccc32)cc1 | inactive: -0.429% |
| CCOC(=O)C1CCN(C(=O)CN(c2ccc(OC)c(OC)c2)S(=O)(=O)c2ccccc2)CC1 | inactive: -0.51% |
| O=C(OCC(=O)N1CCCC1)c1ccc(S(=O)(=O)Nc2ccccc2)cc1 | inactive: -0.162% |
| C#CCOCCOCCOCCNc1nc(N2CCN(C(=O)[C@H](CCCN=C(N)N)n3cc(C(N)[C@H](C)CC)nn3)CC2)nc(N2CCN(C(=O)[C@H](CC(N)=O)n3cc(C(N)[C@@H](C)CC)nn3)CC2)n1 (some centres not stated) | inactive: -0.237% |
| Cc1ccc(S(=O)(=O)Nc2ccc3c(c2)CC(=O)N([C@H](C)CO)C[C@@H](C)[C@H](CN(C)S(=O)(=O)c2ccccc2)O3)cc1 | inactive: 1.04% |
| CCCCCNc1nc(-c2ccccc2)nc(-n2ccnc2)n1 | inactive: -0.269% |
| O=C(O)COc1ccc(NC(=O)C(c2ccccc2)c2ccccc2)cc1 | inactive: 0.356% |
| O=C(c1oc(=O)c2ccccc2c1-c1ccccc1)N1CCOCC1 | inactive: 0.035% |
| NS(=O)(=O)c1ccc(CCNC(=O)CSc2ccccc2)cc1 | inactive: 0.651% |
| COc1cc(/C=N/N2C(=O)C3C4c5ccccc5C(c5ccccc54)C3C2=O)ccc1O (configuration not stated) | inactive: 0.23% |
| COc1ccc(-c2cc(C(F)(F)F)nc(SCCC(=O)NCc3ccco3)n2)cc1 | inactive: -2.16% |
| CCCN(CC(=O)Nc1ccccc1C)C(=O)CCl | inactive: 0.105% |

| Compound | activity change, negative = inhibition |
| --- | --- |
| O=C(O)c1ccc2cc(-c3ccccc3)[nH]c2c1 | inactive: -0.104% |
| CC1CCN(S(=O)(=O)c2ccc3[nH]c(=O)[nH]c3c2)CC1 | inactive: -0.601% |
| CC1=NN(C(N)=S)C(=O)C1N=Nc1c(C)cc(C)cc1C (configuration not stated) | inactive: 0.141% |
| CN1CCN(c2nc3ccccn3c(=O)c2/C=C(\C#N)S(=O)(=O)c2ccc(Cl)cc2)CC1 | inactive: 1.17% |
| Cc1ccc2nc(-c3cccc(NS(C)(=O)=O)c3)cc(-c3ccccc3)c2c1 | inactive: 0.133% |
| C=CCNC(=S)Nc1ccc(N2CCOCC2)c(S(=O)(=O)Nc2ccccc2Cl)c1 | inactive: 0.0985% |
| Cc1c(NC(=O)CCN2C(=O)c3ccccc3C2=O)c(=O)n(-c2ccccc2)n1C | inactive: 0.431% |
| C#CCOCCOCCOCCNc1nc(N2CCN(C(=O)C([C@@H](C)O)n3cc([C@@H](N)CCCCN)nn3)CC2)nc(N2CCN(C(=O)[C@H](CC(N)=O)n3cc([C@@H](N)C(C)C)nn3)CC2)n1 (some centres not stated) | inactive: 0.407% |
| CC(=O)N/C(=C\c1ccccc1)C(=O)OCC(=O)NC1CCCC1 | inactive: -0.477% |
| O=C(O)c1ccc2c(c1)C(=O)N(CCC1=CCCCC1)C2=O | inactive: 0.227% |
| CCOc1cc(NC(=S)NCCOC)c(OCC)cc1NC(=O)c1cccs1 | inactive: -1.07% |
| CCC(=O)Nc1cc2c(cc1C(=O)CC)OCCO2 | inactive: -0.0822% |
| COc1ccc(NN=Nc2nc3c([nH]2)c(=O)n(C)c(=O)n3C)cc1 | inactive: 0.508% |
| O=c1c2cnn(-c3ccccc3)c2nc(-c2cccs2)n1-c1ccc(Cl)cc1 | inactive: 0.414% |
| Cc1ccc(-c2noc(C3CCN(S(C)(=O)=O)CC3)n2)o1 | inactive: -0.331% |
| COc1ccc(Nc2ncnc3sc(-c4ccccc4)cc23)cc1OC | inactive: -0.433% |
| Cc1nnc(-c2cccc(Br)c2)c2cn(-c3ccccc3Cl)nc12 | inactive: 0.673% |
| O=C(OCCCOC(=O)c1ccc(Br)o1)c1ccc(Br)o1 | inactive: 0.495% |
| COc1ccc(NC(=S)NCCCn2ccnc2)cc1 | inactive: -0.13% |
| CCOc1ccc(CN(C)CC(=O)Nc2cc(C)c(C)cc2[N+](=O)[O-])cc1 | inactive: -0.108% |
| N#Cc1ccc(OCC(=O)Nc2ccccc2NS(=O)(=O)c2cccs2)cc1 | inactive: -0.131% |

From PubChem BioAssay AID485318 (Broad Institute, 2010)
